Laboratory results taken from US10412961B2, “Substituted 2,3-dihydrobenzofuran compounds and their use as synergists” (Endura SPA, priority 2015, dated 2019).
Some entries share one result that the patent states for a list of compounds.

How the values were obtained:
[1] = test system: Bemisia tabaci CYPCM1; settings: remaining enzyme activity versus PBO
[2] = target: T1, FE4 Myzus persicae esterases (Myzus persicae, UniProt P35502); experiment: Inhibition of esterase FE4, 4-nitrophenyl acetate model substrate assay; format: biochemical; settings: remaining enzyme activity versus PBO
T1 construct: would be utilised for the purified esterases from aphids; from tissue; host or cells: aphids (Myzus persicae), purified esterase
T1 sequence (P35502 24-564): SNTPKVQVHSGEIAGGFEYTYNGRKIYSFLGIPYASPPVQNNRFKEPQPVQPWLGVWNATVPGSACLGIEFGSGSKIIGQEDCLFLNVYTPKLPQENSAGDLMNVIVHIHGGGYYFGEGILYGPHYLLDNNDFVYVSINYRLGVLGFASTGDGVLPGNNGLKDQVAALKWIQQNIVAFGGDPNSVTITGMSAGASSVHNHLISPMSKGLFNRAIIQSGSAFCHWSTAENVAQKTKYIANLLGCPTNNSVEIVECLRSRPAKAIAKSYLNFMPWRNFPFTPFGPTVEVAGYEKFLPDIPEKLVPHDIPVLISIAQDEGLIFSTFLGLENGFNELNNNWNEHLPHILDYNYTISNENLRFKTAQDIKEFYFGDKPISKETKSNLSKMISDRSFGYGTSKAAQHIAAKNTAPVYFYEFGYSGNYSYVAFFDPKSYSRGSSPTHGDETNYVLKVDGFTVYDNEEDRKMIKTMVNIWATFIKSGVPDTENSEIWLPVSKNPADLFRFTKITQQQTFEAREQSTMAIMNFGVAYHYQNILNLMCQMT
Procedure: Inhibition of Esterasenzymes by Synergists in Myzus persicae
It was envisaged, therefore, that the ‘esterase intereference assay’ (Khot et al., 2008) would be utilised for the purified esterases from aphids. Various esterase substrates were assessed to find one suitable of monitoring inhibition in an insect homogenate. The Myzus persicae resistance associated esterase, FE4, was used.
Initially the esterase interference assay was carried out, as being the ‘absolute’ protocol for characterizing interactions between the compounds of Example 1-9 and FE4. However, since this is a protracted method, a selection of products already reported in the literature were used to compare the interference assay and the use of a model substrate.
From the literature (Philippou et al., 2013) it is known that 1-naphthyl acetate is not suitable for this assay. Instead, 4-nitrophenyl acetate was used. A 10 mM pNA stock was prepared in acetone and added to 0.02 M phosphate buffer pH 7.0 (final concentration 2 mM). The comparison was made with 6 PBO analogues of variable efficacy.
For the assay 10 μL of purified FE4 was diluted to a total volume of 50 μL by the addition of 0.02 M phosphate buffer, pH 7.0 in individual wells of a microplate (maxisorb, NUNC). To each well, 2.5 μL of 10 mM of the compound of Example 1 and of Example 2 in acetone was added and incubated for 10 mins, with acetone only used as a control. Following incubation, 100 μL of 0.02 phosphate buffer, pH 7.0 and 100 μL of 2 mM 4-nitrophenyl acetate was added (final volume in well 250 μL, final substrate concentration 0.8 mM). Enzyme activity was read at 405 nm in a Spectramax Tmax for 5 min, with readings taken every 5 secs. The rate (mOD min^−1) was calculated by the integrated software, Softmax Pro v.5.4.

Structure (SMILES)	inhibition activity compared with PBO [1]	inhibition activity compared with PBO [2]
C#CCOCc1cc(CCC)cc2c1OCC2 [Example 8, 5-n-propyl-7-((prop-2-ynyloxy)methyl)-2,3-dihydrobenzofuran]	better than PBO	better than PBO
C#CCOCc1cc(CCCC)cc2c1OCC2 [Example 5, 5-n-butyl-7-((prop-2-ynyloxy)methyl)-2,3-dihydrobenzofuran]	better than PBO	better than PBO
CC#CCOCc1cc(CCC)cc2c1OCC2 [Example 7, 5-n-propyl-7-((but-2-ynyloxy)methyl)-2,3-dihydrobenzofuran]	better than PBO	better than PBO
CC#CCOc1cc(CCCCCC)cc2c1OCC2 [Example 4, 5-n-hexyl-7-(but-2-ynyloxy)-2,3-dihydrobenzofuran]	better than PBO	better than PBO
CC#CCOCc1cc(CCCC)cc2c1OCC2 [Example 3, 5-n-butyl-7-((but-2-ynyloxy)methyl)-2,3-dihydrobenzofuran]	better than PBO	better than PBO
C#CCOc1cc(CCCCCC)cc2c1OCC2 [Example 6, 5-n-hexyl-7-(prop-2-ynyloxy)-2,3-dihydrobenzofuran]	better than PBO	better than PBO
C#CCOCc1cc(CCCCCC)cc2c1OCC2 [Example 1, 5-n-hexyl-7-((prop-2-ynyloxy)methyl)-2,3-dihydrobenzofuran]	–	better than PBO
CC#CCOCc1cc(CCCCCC)cc2c1OCC2 [Example 2, 5-n-hexyl-7-((but-2-ynyloxy)methyl)-2,3-dihydrobenzofuran]	better than PBO	better than PBO
